Test results: ChEMBL document CHEMBL3804824, “5-((3-Amidobenzyl)oxy)nicotinamides as Sirtuin 2 Inhibitors” (J Med Chem, 2016)

Sequences of proteins named here, by UniProt entry; tags and fusion partners are left off. A change or cut given only in a name is not applied to a line headed by its entry.
UniProt Q9NXA8: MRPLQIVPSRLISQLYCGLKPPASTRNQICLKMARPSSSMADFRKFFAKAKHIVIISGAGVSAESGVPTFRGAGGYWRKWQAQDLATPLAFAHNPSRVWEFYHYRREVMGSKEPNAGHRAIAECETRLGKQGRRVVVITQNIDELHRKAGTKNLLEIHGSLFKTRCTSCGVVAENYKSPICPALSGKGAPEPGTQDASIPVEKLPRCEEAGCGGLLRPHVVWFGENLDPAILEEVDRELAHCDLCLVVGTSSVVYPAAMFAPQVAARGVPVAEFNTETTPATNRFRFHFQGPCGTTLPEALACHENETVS

What was measured:
[1] = molecular target: NAD-dependent protein deacylase sirtuin-5, mitochondrial (Homo sapiens, UniProt Q9NXA8)
in vitro [2] = settings: human, plasma
in vitro [3] = settings: mouse, plasma
in vitro [4] = settings: dog, MDCK
in vitro [5] = settings: dog, MDCK; remark: listed apart in the source
in vitro [6] = settings: mouse, plasma; remark: listed apart in the source
in vitro [7] = settings: dog, MDCK; remark: listed apart in the source
in vitro [8] = settings: human, plasma; remark: listed apart in the source
in vitro [9] = settings: mouse, microsomes
in vitro [10] = settings: human, microsomes
[11] = molecular target: T1, NAD-dependent protein deacetylase sirtuin-3, mitochondrial (Homo sapiens, UniProt Q9NTG7); experiment: biochemical
T1 sequence (Q9NTG7 whole entry): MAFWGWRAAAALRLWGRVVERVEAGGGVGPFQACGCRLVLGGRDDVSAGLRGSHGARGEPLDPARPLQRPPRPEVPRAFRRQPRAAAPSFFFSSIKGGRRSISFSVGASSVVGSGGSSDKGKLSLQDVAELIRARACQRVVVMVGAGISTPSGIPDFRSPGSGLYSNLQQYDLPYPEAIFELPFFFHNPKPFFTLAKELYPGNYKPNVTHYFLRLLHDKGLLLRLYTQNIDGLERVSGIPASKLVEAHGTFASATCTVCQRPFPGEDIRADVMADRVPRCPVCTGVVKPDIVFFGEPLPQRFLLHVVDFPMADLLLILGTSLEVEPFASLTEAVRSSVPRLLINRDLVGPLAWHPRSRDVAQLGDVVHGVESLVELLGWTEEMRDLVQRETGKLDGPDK

SMILES | IC50 [1] | remaining at 6 h (in vitro [2]) | remaining at 24 h (in vitro [3]) | Papp A→B at 3 h, 25 µM (in vitro [4]) | recovery at 3 h, 25 µM (in vitro [5]) | remaining at 6 h (in vitro [6]) | Papp B→A at 3 h, 25 µM (in vitro [7]) | remaining at 24 h (in vitro [8]) | half-life at 1 µM (in vitro [9]) | half-life at 1 µM (in vitro [10]) | Ki [11]
NC(=O)c1cncc(OCc2cccc(NC(=O)c3ccc(N4CCOCC4)cc3)c2)c1 | > 200 µM | 98% | 35% | 5.7 ×10⁻⁶ cm/s | > 90% | 74% | 6.8 ×10⁻⁶ cm/s | 98% | 14 min | 55 min | 
NC(=O)c1cncc(OCc2cccc(NC(=O)c3ccncc3)c2)c1 | > 200 µM | 97% | 7.9% | 16 ×10⁻⁶ cm/s | > 90% | 63% | 12 ×10⁻⁶ cm/s | 99% | 64 min | 408 min | 7.2 µM
